# Reference: ChEMBL document CHEMBL3046280, “Synthesis of 1-amidoalkyl-2-naphthols and oxazine derivatives with study of their antibacterial and antiviral activities” (Med Chem Res, 2013)
# Assays:
# Format in all cases: functional, organism-based
# Staphylococcus aureus = assay: Antibacterial activity against Staphylococcus aureus assessed as growth inhibition at 0.042 uM/ml
# Escherichia coli = assay: Antibacterial activity against Escherichia coli assessed as growth inhibition at 0.042 uM/ml
# Pseudomonas aeruginosa = assay: Antibacterial activity against Pseudomonas aeruginosa assessed as growth inhibition at 0.042 uM/ml
sequence,measurement,setting,value
GENTAMICIN,inhibition zone (IZ),Staphylococcus aureus,28 mm
same,inhibition zone (IZ),Escherichia coli,29 mm
same,inhibition zone (IZ),Pseudomonas aeruginosa,27 mm
